From PMC5014086 (2016)
No constants are given. Whether binding was seen depends on the method and setting. Some results given as binding are weak or reduced against the parent protein; the word gives no strength.

T1: KRM1ECD (ectodomain of human Kremen1, construct KRM1_(ECD-TEV), after TEV protease treatment) (human) (UniProt Q96MU8)
T1 sequence (chain, N-glycans (four glycosylation sites), treated with endoglycosidase F1): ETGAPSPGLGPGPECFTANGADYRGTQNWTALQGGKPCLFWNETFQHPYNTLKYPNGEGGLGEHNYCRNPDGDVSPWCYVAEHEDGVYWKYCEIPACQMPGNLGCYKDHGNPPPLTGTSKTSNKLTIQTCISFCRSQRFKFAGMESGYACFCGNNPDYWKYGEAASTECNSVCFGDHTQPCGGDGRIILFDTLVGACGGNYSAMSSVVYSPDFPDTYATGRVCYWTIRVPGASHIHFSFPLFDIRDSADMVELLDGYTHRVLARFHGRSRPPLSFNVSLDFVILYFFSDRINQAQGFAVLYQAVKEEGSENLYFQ

T2: LRP6_(PE3PE4) (β-propeller/EGF repeats 3 and 4 of LRP6) (human) (UniProt O75581)
T2 sequence: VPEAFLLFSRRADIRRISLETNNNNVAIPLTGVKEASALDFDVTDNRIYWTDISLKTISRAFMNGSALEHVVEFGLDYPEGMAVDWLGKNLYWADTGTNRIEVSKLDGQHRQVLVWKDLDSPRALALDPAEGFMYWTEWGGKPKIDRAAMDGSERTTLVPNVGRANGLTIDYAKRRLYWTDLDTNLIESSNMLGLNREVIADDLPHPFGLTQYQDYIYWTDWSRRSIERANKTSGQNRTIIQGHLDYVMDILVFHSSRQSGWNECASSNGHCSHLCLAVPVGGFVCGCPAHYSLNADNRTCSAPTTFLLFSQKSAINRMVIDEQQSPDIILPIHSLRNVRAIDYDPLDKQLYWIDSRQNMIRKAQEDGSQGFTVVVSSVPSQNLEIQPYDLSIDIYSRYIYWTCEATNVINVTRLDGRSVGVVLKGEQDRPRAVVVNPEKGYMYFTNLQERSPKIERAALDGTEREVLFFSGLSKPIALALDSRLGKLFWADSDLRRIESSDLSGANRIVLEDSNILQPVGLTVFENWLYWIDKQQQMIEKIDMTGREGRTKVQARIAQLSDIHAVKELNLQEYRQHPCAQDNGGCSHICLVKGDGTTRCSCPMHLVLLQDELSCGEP


Columns and labels:
[1] = biological target: T1, KRM1ECD (ectodomain of human Kremen1, construct KRM1_(ECD-TEV), after TEV protease treatment) (human); test: SEC; gel filtration of complexes co-expressed in the KRM1_(ECD-TEV) stable cell line and purified from conditioned medium; 10 mM HEPES/NaOH (pH 7.5), 150 mM NaCl; data not shown; both purified
[2] = biological target: T1, KRM1ECD (ectodomain of human Kremen1, construct KRM1_(ECD-TEV), after TEV protease treatment) (human); test: crystal structure; ternary complex from an LRP6_(PE3PE4)-DKK1fl-KRM1ECD sample at 9 mg/mL; anisotropic data to 3.5 Å, 6.4 Å and 3.7 Å; molecular replacement; both purified
[3] = biological target: T2, LRP6_(PE3PE4) (β-propeller/EGF repeats 3 and 4 of LRP6) (human); test: as above

Row | binding [1] | binding [2] | binding [3] | Binder
1 | binds |  |  | DKK1_(Linker-CRD2) in the purified complex with KRM1ECD (domain or fragment, UniProt O94907 141-266) SDQNHFRGEIEETITESFGNDHSTLDGYSRRTTLSSKMYHTKGQEGSVCLRSSDCASGLCCARHFWSKICKPVLKEGQVCTKHRRKGSHGLEIFQRCYCGEGLSCRIQKDHHQASNSSRLHTCQRH
2 | binds | binds | binds | full-length DKK1 (ligand) TLNSVLNSNAIKNLPPPLGGAAGHPGSAVSAAPGILYPGGNKYQTIDNYQPYPCAEDEECGTDEYCASPTRGGDAGVQICLACRKRRKRCMRHAMCCPGNYCKNGICVSSDQNHFRGEIEETITESFGNDHSTLDGYSRRTTLSSKMYHTKGQEGSVCLRSSDCASGLCCARHFWSKICKPVLKEGQVCTKHRRKGSHGLEIFQRCYCGEGLSCRIQKDHHQASNSSRLHTCQRH
3 | binds |  |  | DKK1_(CRD2), released from SUMO-DKK1_(Linker-TEV-CRD2) (domain or fragment, UniProt O94907 181-266) TKGQEGSVCLRSSDCASGLCCARHFWSKICKPVLKEGQVCTKHRRKGSHGLEIFQRCYCGEGLSCRIQKDHHQASNSSRLHTCQRH
